{
  "sequences": {"note": "The chains behind the UniProt entries cited, without tags or fusion partners. Where a name states a change or a piece, a line headed by the entry shows the natural chain unless it says otherwise.", "UniProt O00241": "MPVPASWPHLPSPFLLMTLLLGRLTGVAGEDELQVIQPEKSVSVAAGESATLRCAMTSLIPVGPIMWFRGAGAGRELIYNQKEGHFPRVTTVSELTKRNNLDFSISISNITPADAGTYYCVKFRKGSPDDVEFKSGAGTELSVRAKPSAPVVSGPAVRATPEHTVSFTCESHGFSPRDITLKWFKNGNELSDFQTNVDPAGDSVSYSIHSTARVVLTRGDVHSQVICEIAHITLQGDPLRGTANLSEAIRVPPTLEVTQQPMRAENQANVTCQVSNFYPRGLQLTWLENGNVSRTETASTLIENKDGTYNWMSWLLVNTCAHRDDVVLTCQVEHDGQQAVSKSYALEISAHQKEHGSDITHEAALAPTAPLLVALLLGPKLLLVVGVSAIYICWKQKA"},
  "source": "patent CN111995682A",
  "biological_target": "人SIRPβ-ECD-His抗原 (human) (UniProt O00241)",
  "test": "indirect ELISA, human SIRPβ-ECD-His coated",
  "note": "No constants are given. Whether binding was seen depends on the method and setting. Some results given as binding are weak or reduced against the parent protein; the word gives no strength.",
  "data": [
    {"binder": "Benchmark (KWAR23抗体) (antibody, human IgG4 S228P, kappa, V domains shown) VH: EVQLQQSGAELVKPGASVKLSCTASGFNIKDYYIHWVQQRTEQGLEWIGRIDPEDGETKYAPKFQDKATITADTSSNTAYLHLSSLTSEDTAVYYCARWGAYWGQGTLVTVSA VL: QIVLTQSPAIMSASPGEKVTLTCSASSSVSSSYLYWYQQKPGSSPKLWIYSTSNLASGVPARFSGSGSGTSYSLTISSMEAEDAASYFCHQWSSYPRTFGAGTKLELKR", "values": [
      {"measurement": "binding", "value": "binds"}
    ]}
  ]
}
